Experimental data published in ChEMBL document CHEMBL1122196, “Arylethanolamines derived from salicylamide with alpha- and beta-adrenoceptor blocking activities. Preparation of labetalol, its enantiomers, and related salicylamides” (J Med Chem, 1982).

Assay: Evaluated for Adrenoceptor from guinea pig left atrium by using isoproterenol as agonist.
Format: functional, tissue-based
Details: Cavia porcellus, Cardiac atrium; read-out: pA2 (converted)

With `CC(C)NCC(O)COc1cccc2ccccc12` (stereo unspecified) [PROPRANOLOL] the Kb was 1.55 nM.
